According to the supplement of paper PMC7666118:
The other results are listed elsewhere or left out.

By UniProt entry, the sequences of proteins in these tests, tags left out. Where a name states a change or a piece, a line headed by the entry shows the natural chain unless it says otherwise.
UniProt P22570: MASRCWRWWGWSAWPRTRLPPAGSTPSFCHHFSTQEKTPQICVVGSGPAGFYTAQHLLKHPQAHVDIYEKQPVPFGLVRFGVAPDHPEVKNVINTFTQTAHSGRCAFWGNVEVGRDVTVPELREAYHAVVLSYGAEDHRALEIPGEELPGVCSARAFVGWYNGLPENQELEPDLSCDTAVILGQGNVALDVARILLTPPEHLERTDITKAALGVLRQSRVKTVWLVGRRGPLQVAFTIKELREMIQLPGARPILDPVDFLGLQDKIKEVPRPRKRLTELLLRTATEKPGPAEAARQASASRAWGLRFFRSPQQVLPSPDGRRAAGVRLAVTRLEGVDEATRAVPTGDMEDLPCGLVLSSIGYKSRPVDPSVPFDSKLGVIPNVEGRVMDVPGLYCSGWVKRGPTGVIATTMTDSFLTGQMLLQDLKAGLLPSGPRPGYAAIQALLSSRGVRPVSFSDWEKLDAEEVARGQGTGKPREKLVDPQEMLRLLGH
UniProt Q9Y3I1: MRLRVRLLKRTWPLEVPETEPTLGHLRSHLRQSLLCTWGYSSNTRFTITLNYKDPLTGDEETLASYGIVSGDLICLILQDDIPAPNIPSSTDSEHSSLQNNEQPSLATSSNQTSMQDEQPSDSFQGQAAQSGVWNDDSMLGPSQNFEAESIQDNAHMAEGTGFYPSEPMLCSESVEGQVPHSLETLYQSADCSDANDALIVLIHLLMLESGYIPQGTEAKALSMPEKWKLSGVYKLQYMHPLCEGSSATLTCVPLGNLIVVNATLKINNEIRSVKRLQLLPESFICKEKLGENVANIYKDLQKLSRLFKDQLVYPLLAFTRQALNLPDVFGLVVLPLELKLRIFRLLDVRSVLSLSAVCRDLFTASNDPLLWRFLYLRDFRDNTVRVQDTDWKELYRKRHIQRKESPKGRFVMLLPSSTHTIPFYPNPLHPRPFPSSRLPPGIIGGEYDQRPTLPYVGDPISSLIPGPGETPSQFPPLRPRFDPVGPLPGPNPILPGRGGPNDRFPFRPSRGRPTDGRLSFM
UniProt Q9Y2K7: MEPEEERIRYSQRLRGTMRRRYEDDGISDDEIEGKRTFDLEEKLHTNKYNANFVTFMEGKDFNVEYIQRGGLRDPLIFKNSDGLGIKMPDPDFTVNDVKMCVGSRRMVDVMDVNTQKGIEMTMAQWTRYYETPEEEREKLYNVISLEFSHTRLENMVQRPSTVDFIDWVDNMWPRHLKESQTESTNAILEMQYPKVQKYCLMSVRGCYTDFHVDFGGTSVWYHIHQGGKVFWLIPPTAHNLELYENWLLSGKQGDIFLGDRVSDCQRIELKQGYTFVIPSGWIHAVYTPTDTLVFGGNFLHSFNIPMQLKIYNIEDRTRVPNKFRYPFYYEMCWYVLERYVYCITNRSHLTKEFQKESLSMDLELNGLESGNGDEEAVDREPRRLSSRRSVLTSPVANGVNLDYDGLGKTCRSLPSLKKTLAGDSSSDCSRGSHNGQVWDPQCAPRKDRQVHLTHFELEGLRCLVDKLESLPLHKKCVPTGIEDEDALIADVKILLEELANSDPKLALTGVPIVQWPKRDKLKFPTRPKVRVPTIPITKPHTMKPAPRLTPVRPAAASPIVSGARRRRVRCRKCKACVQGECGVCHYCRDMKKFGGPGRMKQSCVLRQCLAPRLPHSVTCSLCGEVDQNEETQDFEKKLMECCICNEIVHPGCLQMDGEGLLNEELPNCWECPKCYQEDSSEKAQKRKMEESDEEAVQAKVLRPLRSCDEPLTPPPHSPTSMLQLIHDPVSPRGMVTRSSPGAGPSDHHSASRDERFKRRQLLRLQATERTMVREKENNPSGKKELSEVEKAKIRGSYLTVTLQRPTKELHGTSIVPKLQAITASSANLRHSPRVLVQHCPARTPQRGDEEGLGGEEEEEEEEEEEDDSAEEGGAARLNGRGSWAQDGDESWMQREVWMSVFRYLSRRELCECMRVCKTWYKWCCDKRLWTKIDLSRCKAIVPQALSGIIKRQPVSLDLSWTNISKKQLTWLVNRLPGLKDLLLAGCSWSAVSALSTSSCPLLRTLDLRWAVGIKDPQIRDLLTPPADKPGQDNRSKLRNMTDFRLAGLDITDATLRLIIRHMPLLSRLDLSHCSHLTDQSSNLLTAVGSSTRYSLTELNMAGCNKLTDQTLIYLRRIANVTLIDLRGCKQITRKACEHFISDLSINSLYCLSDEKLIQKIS
UniProt Q96GK7: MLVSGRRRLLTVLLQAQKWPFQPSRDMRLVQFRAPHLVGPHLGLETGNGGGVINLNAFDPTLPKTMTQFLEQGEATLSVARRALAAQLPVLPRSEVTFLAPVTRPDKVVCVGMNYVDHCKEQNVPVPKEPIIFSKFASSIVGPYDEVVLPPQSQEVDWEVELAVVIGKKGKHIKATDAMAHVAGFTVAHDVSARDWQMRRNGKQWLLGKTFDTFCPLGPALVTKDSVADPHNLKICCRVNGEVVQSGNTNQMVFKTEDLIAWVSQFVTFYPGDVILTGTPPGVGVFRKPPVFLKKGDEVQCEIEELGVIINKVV
UniProt Q16134: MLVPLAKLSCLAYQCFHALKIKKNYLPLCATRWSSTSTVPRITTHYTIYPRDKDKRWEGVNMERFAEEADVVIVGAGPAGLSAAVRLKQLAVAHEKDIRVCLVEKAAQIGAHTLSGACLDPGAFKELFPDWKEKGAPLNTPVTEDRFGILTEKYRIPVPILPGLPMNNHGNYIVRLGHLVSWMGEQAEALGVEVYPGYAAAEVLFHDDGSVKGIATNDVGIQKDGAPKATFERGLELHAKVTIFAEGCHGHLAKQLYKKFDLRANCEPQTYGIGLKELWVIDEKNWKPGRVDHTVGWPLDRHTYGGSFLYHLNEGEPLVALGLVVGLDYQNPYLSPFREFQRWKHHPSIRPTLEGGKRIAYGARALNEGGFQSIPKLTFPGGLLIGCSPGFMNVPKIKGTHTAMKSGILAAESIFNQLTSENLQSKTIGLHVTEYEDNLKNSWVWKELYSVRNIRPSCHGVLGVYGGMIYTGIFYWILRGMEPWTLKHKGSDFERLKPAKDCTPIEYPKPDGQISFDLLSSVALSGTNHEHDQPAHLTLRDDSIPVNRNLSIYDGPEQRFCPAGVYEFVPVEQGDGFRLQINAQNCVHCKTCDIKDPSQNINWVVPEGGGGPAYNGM
UniProt Q9UK73, whole entry: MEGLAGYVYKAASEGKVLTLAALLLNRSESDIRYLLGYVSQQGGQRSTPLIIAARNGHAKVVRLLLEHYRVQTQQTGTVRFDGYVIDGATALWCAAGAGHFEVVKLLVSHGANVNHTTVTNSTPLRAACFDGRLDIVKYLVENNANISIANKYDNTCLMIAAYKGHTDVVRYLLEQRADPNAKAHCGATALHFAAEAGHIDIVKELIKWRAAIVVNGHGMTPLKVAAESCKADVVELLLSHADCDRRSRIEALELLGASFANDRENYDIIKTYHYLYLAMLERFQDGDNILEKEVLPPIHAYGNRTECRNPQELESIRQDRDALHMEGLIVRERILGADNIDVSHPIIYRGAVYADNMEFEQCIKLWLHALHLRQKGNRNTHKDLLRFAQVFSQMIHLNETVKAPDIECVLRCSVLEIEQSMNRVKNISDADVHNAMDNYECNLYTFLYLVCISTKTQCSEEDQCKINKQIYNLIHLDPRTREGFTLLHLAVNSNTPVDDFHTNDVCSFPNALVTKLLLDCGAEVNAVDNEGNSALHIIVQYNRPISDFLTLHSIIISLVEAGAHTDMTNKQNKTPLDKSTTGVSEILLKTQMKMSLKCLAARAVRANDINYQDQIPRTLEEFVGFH
UniProt P13804: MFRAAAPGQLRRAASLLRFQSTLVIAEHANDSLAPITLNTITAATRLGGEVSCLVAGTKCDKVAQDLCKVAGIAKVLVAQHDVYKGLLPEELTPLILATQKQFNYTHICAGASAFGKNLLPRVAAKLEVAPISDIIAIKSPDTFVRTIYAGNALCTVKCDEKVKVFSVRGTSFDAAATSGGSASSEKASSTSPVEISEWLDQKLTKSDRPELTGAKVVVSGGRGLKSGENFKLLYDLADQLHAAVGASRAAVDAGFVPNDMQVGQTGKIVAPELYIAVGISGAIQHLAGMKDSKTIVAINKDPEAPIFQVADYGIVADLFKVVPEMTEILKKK
UniProt Q14376: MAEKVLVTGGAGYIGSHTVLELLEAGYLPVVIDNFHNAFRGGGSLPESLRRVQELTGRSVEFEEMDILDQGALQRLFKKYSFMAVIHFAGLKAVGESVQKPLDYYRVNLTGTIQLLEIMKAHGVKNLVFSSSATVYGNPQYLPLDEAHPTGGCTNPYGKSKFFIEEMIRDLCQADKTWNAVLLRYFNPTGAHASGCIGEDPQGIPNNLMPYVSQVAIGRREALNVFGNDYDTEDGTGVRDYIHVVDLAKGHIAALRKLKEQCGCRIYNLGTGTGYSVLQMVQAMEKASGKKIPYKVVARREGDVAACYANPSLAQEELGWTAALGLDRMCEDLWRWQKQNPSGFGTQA
UniProt Q01780: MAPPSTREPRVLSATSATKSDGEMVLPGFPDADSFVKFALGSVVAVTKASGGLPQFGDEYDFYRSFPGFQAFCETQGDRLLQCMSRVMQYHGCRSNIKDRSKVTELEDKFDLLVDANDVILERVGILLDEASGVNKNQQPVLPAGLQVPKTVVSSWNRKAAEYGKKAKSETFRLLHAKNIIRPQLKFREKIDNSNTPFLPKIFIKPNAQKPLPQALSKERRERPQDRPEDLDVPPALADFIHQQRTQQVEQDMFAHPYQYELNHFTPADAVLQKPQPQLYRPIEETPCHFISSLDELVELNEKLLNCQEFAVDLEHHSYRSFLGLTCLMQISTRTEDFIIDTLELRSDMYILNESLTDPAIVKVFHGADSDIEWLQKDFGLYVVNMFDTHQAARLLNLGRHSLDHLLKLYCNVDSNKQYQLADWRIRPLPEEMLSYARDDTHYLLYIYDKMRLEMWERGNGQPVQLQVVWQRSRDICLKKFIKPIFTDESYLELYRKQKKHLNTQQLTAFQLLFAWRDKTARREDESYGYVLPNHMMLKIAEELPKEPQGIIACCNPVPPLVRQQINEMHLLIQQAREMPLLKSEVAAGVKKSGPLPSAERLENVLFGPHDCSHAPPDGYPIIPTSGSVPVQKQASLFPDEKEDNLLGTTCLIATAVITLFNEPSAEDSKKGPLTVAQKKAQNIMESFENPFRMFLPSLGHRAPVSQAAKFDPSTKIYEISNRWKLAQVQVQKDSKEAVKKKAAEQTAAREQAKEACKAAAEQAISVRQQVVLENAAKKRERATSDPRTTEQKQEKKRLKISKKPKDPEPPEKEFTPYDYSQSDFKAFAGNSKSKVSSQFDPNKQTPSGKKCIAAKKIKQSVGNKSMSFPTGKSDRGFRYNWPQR
UniProt Q6ZS17: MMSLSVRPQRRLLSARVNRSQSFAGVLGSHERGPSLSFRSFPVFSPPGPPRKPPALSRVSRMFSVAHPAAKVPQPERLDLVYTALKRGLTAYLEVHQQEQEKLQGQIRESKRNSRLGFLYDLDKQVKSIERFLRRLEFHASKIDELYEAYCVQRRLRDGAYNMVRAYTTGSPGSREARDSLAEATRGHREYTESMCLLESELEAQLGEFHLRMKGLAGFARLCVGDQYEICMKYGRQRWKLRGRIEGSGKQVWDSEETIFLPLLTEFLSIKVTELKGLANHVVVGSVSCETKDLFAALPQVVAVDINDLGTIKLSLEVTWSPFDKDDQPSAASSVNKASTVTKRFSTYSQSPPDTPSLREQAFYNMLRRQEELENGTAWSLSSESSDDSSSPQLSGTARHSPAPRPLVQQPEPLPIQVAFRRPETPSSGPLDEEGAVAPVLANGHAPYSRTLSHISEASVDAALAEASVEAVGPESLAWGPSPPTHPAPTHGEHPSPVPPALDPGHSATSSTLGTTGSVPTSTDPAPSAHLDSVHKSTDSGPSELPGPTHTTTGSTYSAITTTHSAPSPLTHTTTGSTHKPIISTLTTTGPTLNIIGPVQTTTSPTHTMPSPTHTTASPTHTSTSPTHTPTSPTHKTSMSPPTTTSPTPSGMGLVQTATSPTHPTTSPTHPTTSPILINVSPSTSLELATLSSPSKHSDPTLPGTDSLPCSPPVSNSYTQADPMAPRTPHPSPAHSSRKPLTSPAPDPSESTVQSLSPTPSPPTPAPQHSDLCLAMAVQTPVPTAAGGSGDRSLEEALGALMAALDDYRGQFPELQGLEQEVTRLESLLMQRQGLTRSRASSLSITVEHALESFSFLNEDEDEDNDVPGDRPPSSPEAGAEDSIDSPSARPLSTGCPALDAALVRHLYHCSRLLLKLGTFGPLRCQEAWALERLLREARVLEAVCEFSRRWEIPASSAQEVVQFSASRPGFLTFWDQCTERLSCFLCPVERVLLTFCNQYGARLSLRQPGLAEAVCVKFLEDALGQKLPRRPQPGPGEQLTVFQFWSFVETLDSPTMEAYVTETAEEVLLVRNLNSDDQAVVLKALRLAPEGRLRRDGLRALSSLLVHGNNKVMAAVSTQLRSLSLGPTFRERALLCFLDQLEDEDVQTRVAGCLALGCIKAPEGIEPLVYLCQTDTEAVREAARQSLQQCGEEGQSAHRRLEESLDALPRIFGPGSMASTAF

Compound: COc1ccc(Cn2ccc3ccc(C(=O)NO)cc32)cc1
Assay: dose-dependent thermal stabilisation call (2D-TPP, DLPTP, 10% FDR) (binary (1 = stabilised)); higher = stabilised by the compound
Settings: system: HL-60 intact cells; concentration range 0.04-10 µM

Target	dose-dependent thermal stabilisation call
GBF1 (UniProt Q92538)	inactive: 0
FDXR (UniProt P22570)	inactive: 0
FBXO7 (UniProt Q9Y3I1)	inactive: 0
FBXL11 (UniProt Q9Y2K7)	inactive: 0
GBL (UniProt Q9BVC4)	inactive: 0
GBA2 (UniProt Q9HCG7)	inactive: 0
FAHD2A (UniProt Q96GK7)	inactive: 0
FHOD1 (UniProt Q9Y613)	inactive: 0
EXTL3 (UniProt O43909)	inactive: 0
FPGS (UniProt Q05932)	inactive: 0
EXOC2 (UniProt Q96KP1)	inactive: 0
ETFDH (UniProt Q16134)	inactive: 0
FEM1B (UniProt Q9UK73)	inactive: 0
FAU (UniProt P62861)	inactive: 0
FAM21B (UniProt Q641Q2)	inactive: 0
GALNT2 (UniProt Q10471)	inactive: 0
FEM1A (UniProt Q9BSK4)	inactive: 0
FAM125A (UniProt Q96EY5)	inactive: 0
FAM135A (UniProt Q9P2D6)	inactive: 0

Target	dose-dependent thermal stabilisation call
GATAD2B (UniProt Q8WXI9)	inactive: 0
ETFA (UniProt P13804)	inactive: 0
FUNDC2 (UniProt Q9BWH2)	inactive: 0
GBE1 (UniProt Q04446)	inactive: 0
FBXO38 (UniProt Q6PIJ6)	inactive: 0
FAM54B (UniProt Q9H019)	inactive: 0
FIBP (UniProt O43427)	inactive: 0
FUS (UniProt P35637)	inactive: 0
FAM158A (UniProt Q9Y3B6)	inactive: 0
GAA (UniProt P10253)	inactive: 0
GALE (UniProt Q14376)	inactive: 0
ETF1 (UniProt P62495)	inactive: 0
EXOSC10 (UniProt Q01780)	inactive: 0
FAM65A (UniProt Q6ZS17)	inactive: 0
FAM173A (UniProt Q9BQD7)	inactive: 0
FKBP8 (UniProt Q14318)	inactive: 0
FN3KRP (UniProt Q9HA64)	inactive: 0
FGFR1OP2 (UniProt Q9NVK5)	inactive: 0

2 records drawn at random from the list so far, as already listed:
Target	dose-dependent thermal stabilisation call
FIBP (UniProt O43427)	inactive: 0
ETF1 (UniProt P62495)	inactive: 0
